Source: PubChem BioAssay AID1224830 (NIAID, 2016)

Assay: 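Genes whose knock-down alters the TNF-alpha reporter response to LPS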 (primary screen)
Cells: human THP-1 monocytic leukaemia cells, TNF dual-luciferase reporter clone, PMA-differentiated to macrophage-like cells
Reagents: siRNA pool against human genes, 50 nM
Timing: LPS for 4 h, given about 3 days after siRNA transfection
Challenge: bacterial LPS (TLR4 ligand), 10 ng/ml
Measured: 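TNF firefly reporter luminescence divided by renilla, normalised to the plate median, then turned into a robust z-score for each replicate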
Direction: TNF reporter robust z-score: higher = stronger TNF reporter response to LPS
Rule for the call: 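a well is active when its z-score exceeds 2.8 or falls below -1.5; control wells carry no call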
The deposit covers about 18,000 reagents; shown is a random part of them. Over the whole deposit, about 2,900 (16%) were called active. 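Calls are made per well; low scores hint the gene aids the LPS response, high scores that it dampens it.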 Entries without a mark were called inactive. Repeated entries: four replicate wells of each siRNA pool. No sequences are given here.

target | PubChem SID | TNF reporter robust z-score
ETS1 (GeneID 2113) | SID315448574 | -0.21
ETS1 (GeneID 2113) | SID315448574 | 0.71
ETS1 (GeneID 2113) | SID315448574 | -0.03
ETS1 (GeneID 2113) | SID315448574 | 2.07
RNF6 (GeneID 6049) | SID315451149 | -0.1
RNF6 (GeneID 6049) | SID315451149 | 0.32
RNF6 (GeneID 6049) | SID315451149 | -0.2
RNF6 (GeneID 6049) | SID315451149 | 2.4
CSDC2 (GeneID 27254) | SID315456000 | 1.85
CSDC2 (GeneID 27254) | SID315456000 | 0.76
CSDC2 (GeneID 27254) | SID315456000 | 1.6
CSDC2 (GeneID 27254) | SID315456000 | 0.64
ST6GALNAC5 (GeneID 81849) | SID315459958 | -0.7
ST6GALNAC5 (GeneID 81849) | SID315459958 | -0.26
ST6GALNAC5 (GeneID 81849) | SID315459958 | -0.44
ST6GALNAC5 (GeneID 81849) | SID315459958 | -0.5
PNCK (GeneID 139728) | SID315462082 | 0.18
PNCK (GeneID 139728) | SID315462082 | -1.58 (active)
PNCK (GeneID 139728) | SID315462082 | -0.83
PNCK (GeneID 139728) | SID315462082 | -0.86
TEC (GeneID 7006) | SID315451817 | -1.01
TEC (GeneID 7006) | SID315451817 | -0.44
TEC (GeneID 7006) | SID315451817 | 0.16
TEC (GeneID 7006) | SID315451817 | 1
PEX10 (GeneID 5192) | SID315450517 | -1.05
PEX10 (GeneID 5192) | SID315450517 | -1.93 (active)
PEX10 (GeneID 5192) | SID315450517 | -0.78
PEX10 (GeneID 5192) | SID315450517 | -2.09 (active)
CLHC1 (GeneID 130162) | SID315461855 | -0.68
CLHC1 (GeneID 130162) | SID315461855 | 1.25
CLHC1 (GeneID 130162) | SID315461855 | 0
CLHC1 (GeneID 130162) | SID315461855 | 0.93
CT47A6 (GeneID 728062) | SID315465180 | 1.09
CT47A6 (GeneID 728062) | SID315465180 | 0.42
CT47A6 (GeneID 728062) | SID315465180 | -0.39
CT47A6 (GeneID 728062) | SID315465180 | 1.61
ZRSR2 (GeneID 8233) | SID315452440 | 1.18
ZRSR2 (GeneID 8233) | SID315452440 | 1.6
ZRSR2 (GeneID 8233) | SID315452440 | 1.27
ZRSR2 (GeneID 8233) | SID315452440 | 1.71
DLL3 (GeneID 10683) | SID315454295 | 0.8
DLL3 (GeneID 10683) | SID315454295 | 1.14
DLL3 (GeneID 10683) | SID315454295 | 1.02
DLL3 (GeneID 10683) | SID315454295 | 1.86
TCTN1 (GeneID 79600) | SID315459317 | 0.1
TCTN1 (GeneID 79600) | SID315459317 | 0.08
TCTN1 (GeneID 79600) | SID315459317 | -0.47
TCTN1 (GeneID 79600) | SID315459317 | -0.61
IFNK (GeneID 56832) | SID315458120 | 0.66
IFNK (GeneID 56832) | SID315458120 | 0.87
IFNK (GeneID 56832) | SID315458120 | -0.16
IFNK (GeneID 56832) | SID315458120 | 1.91
DRAM1 (GeneID 55332) | SID315457603 | -0.51
DRAM1 (GeneID 55332) | SID315457603 | -1.38
DRAM1 (GeneID 55332) | SID315457603 | -1.44
DRAM1 (GeneID 55332) | SID315457603 | -1.36
ZG16 (GeneID 653808) | SID315461594 | -0.35
ZG16 (GeneID 653808) | SID315461594 | -0.6
ZG16 (GeneID 653808) | SID315461594 | 0.08
ZG16 (GeneID 653808) | SID315461594 | 0.04
IQGAP3 (GeneID 128239) | SID315461785 | 0.23
IQGAP3 (GeneID 128239) | SID315461785 | -0.48
IQGAP3 (GeneID 128239) | SID315461785 | -0.92
IQGAP3 (GeneID 128239) | SID315461785 | 0.51
MTMR12 (GeneID 54545) | SID315457073 | -0.34
MTMR12 (GeneID 54545) | SID315457073 | -0.7
MTMR12 (GeneID 54545) | SID315457073 | 0.5
MTMR12 (GeneID 54545) | SID315457073 | -0.26
SMTN (GeneID 6525) | SID315451464 | -1.01
SMTN (GeneID 6525) | SID315451464 | -0.54
SMTN (GeneID 6525) | SID315451464 | -0.62
SMTN (GeneID 6525) | SID315451464 | 0.64
ST7L (GeneID 54879) | SID315457232 | 0.03
ST7L (GeneID 54879) | SID315457232 | 1.03
ST7L (GeneID 54879) | SID315457232 | 0.24
ST7L (GeneID 54879) | SID315457232 | 1.01
KRT19 (GeneID 3880) | SID315449702 | -0.22
KRT19 (GeneID 3880) | SID315449702 | -0.43
KRT19 (GeneID 3880) | SID315449702 | -0.02
KRT19 (GeneID 3880) | SID315449702 | 0.39
ZNF236 (GeneID 7776) | SID315452297 | 1.93
ZNF236 (GeneID 7776) | SID315452297 | 2.6
ZNF236 (GeneID 7776) | SID315452297 | 2.86 (active)
ZNF236 (GeneID 7776) | SID315452297 | 0.57
RPL3 (GeneID 6122) | SID315451169 | -0.77
RPL3 (GeneID 6122) | SID315451169 | -0.55
RPL3 (GeneID 6122) | SID315451169 | -1.28
RPL3 (GeneID 6122) | SID315451169 | -0.67
OR51B4 (GeneID 79339) | SID315459268 | 0.01
OR51B4 (GeneID 79339) | SID315459268 | -0.02
OR51B4 (GeneID 79339) | SID315459268 | -0.25
OR51B4 (GeneID 79339) | SID315459268 | -0.17
FRMD1 (GeneID 79981) | SID315459604 | 0.57
FRMD1 (GeneID 79981) | SID315459604 | 0.65
FRMD1 (GeneID 79981) | SID315459604 | 0.17
FRMD1 (GeneID 79981) | SID315459604 | 0.16
SMCO1 (GeneID 255798) | SID315463506 | -0.04
SMCO1 (GeneID 255798) | SID315463506 | 0.06
SMCO1 (GeneID 255798) | SID315463506 | 0.13
SMCO1 (GeneID 255798) | SID315463506 | -0.62
HID1 (GeneID 283987) | SID315463718 | 0.7
HID1 (GeneID 283987) | SID315463718 | 2.91 (active)
HID1 (GeneID 283987) | SID315463718 | 0.93
HID1 (GeneID 283987) | SID315463718 | 1.52
TBK1 (GeneID 29110) | SID315456149 | -0.1
TBK1 (GeneID 29110) | SID315456149 | 0.78
TBK1 (GeneID 29110) | SID315456149 | -0.11
TBK1 (GeneID 29110) | SID315456149 | 0.42
ZNF821 (GeneID 55565) | SID315457682 | 0.59
ZNF821 (GeneID 55565) | SID315457682 | 0.25
ZNF821 (GeneID 55565) | SID315457682 | -0.03
ZNF821 (GeneID 55565) | SID315457682 | 0.51

Ordered by “TNF reporter robust z-score” (ascending): 9 of the entries above
target | PubChem SID | TNF reporter robust z-score
SMTN (GeneID 6525) | SID315451464 | -1.01
SMTN (GeneID 6525) | SID315451464 | -0.62
SMTN (GeneID 6525) | SID315451464 | -0.54
KRT19 (GeneID 3880) | SID315449702 | -0.22
ST7L (GeneID 54879) | SID315457232 | 0.03
ST7L (GeneID 54879) | SID315457232 | 0.24
SMTN (GeneID 6525) | SID315451464 | 0.64
ST7L (GeneID 54879) | SID315457232 | 1.01
ST7L (GeneID 54879) | SID315457232 | 1.03
